In PubChem BioAssay AID2685 (National Center for Advancing Translational Sciences (NCATS), 2010):
This is one part of the list. These are further read-outs of the screen, such as a control signal, another cell line or another target. No call is given for them. Most of these compounds were active or inconclusive in the main read-out, so they are no random draw. Potencies come from curve fits of mixed quality, noted in brackets.

Assay: qHTS Assay for Lipid Storage Modulators in Drosophila S3 Cells;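 on cell number change: cells counted by Cell Tracker Red CMTPX staining in the red channel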
Conditions: BODIPY lipid droplet fluorescence, 18-24 h; for cell number change: measured here: cell count max response, cells fed with added oleic acid
Procedure, shortened: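 Laser-scanning cytometry quantifies lipid droplet accumulation (500–530 nm total intensity; droplet/cell object ratio) in oleic acid-fed (400 uM added) Drosophila S3 cells treated with a concentration series. 20 uM Triacsin C defined 100% inhibition.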

[1] = measured here: cell number channel AC50, cells fed with added oleic acid
[2] = measured here: lipid fluorescence (Fed channel) AC50, cells fed with added oleic acid

Structure (SMILES) | cell number change [%] | AC50 [1] | AC50 [2]
CCCn1c(C)cc(C(=O)COC(=O)c2c(C)nn(-c3ccccc3)c2C)c1C | 53.9 | 8.2 µM [rising, partial curve] | –
C=CCn1c(SCc2nc3ccccc3c(=O)[nH]2)nc2ccccc2c1=O | -12.3 | 1.3 µM [rising, full curve, poor fit] | –
O=C(NCc1cn2ccsc2n1)c1cccs1 | -1.73 | – | 1.16 µM [rising, full curve]
CN(C)Cc1c(O)ccc2c(=O)c(-c3ccccc3Cl)c(C(F)(F)F)oc12 | -16.5 | – | 29.1 µM [rising, single point]
COc1ccc(S(=O)(=O)N2CCCC(C(=O)N3CCCC3)C2)cc1OC (stereo not drawn) | 47.8 | 13 µM [rising, partial curve, poor fit] | –
CC(C)OP(=O)(OC(C)C)C(NC(=O)c1ccccc1)C(N)=O (stereo not drawn) | -16.1 | – | 3.66 µM [falling, single point]
CCCc1nn2c(=O)cc(CSCC(=O)Nc3nnc(CC)s3)nc2s1 | 16.4 | – | 29.1 µM [rising, single point]
CCCCOC(=O)C1=C(C)NC(=O)NC1c1ccc(N(C)C)cc1 (stereo not drawn) | -13.2 | – | 25.9 µM [rising, partial curve, poor fit]
CCC(C)NC(=O)Nc1ccc2c(c1)N(C)C(=O)c1ccccc1S2 (stereo not drawn) | 5.19 | 6.51 µM [falling, single point] | –
Cc1cc(N2C(=O)C(O)=C(C(=O)c3cc4ccccc4o3)C2c2ccc(OC(C)C)cc2)no1 (stereo not drawn) | 7.46 | – | 29.1 µM [rising, partial curve, poor fit]
Cc1cccc(-n2c(O)c(C=Nc3ccc(O)cc3)c3ccccc3c2=O)n1 | -45.7 | 14.6 µM [falling, partial curve, poor fit] | 16.4 µM [falling, partial curve, poor fit]
COc1ccccc1C1CCN(Cc2ccc(Cl)cc2Cl)CC1 | -54.6 | 29.1 µM [falling, single point] | 18.4 µM [falling, single point]
COc1ccc(COc2cccc3ccc(C)nc23)cc1F | 11.3 | – | –
CC1CCN(c2ncnc3c2cnn3Cc2ccc(Cl)cc2)CC1 | 2.16 | – | 14.6 µM [rising, single point]
O=C(CN1CCN(S(=O)(=O)c2ccc(F)cc2)CC1)Nc1ccnn1C1CCCC1 | -48.3 | 9.2 µM [falling, partial curve] | –
S=C(NCc1ccncc1)Nc1ccc(Br)cc1Cl | -15.9 | – | 2.91 µM [rising, single point]

Shown as labelled records: entries from further up
Cc1cccc(-n2c(O)c(C=Nc3ccc(O)cc3)c3ccccc3c2=O)n1
  cell number change [%]: -45.7; AC50 [1]: 14.6 µM [falling, partial curve, poor fit]; AC50 [2]: 16.4 µM [falling, partial curve, poor fit]
COc1ccccc1C1CCN(Cc2ccc(Cl)cc2Cl)CC1
  cell number change [%]: -54.6; AC50 [1]: 29.1 µM [falling, single point]; AC50 [2]: 18.4 µM [falling, single point]
